Measurements published in PMC12463075.
These are yes or no findings as the source states them, for the method shown. Binding seen in cells or lysates may run through a third protein. These calls come from enrichment with a bait or labelling near it, and not all partners need be listed. Sequences can lack the tags named with a protein.

Protein sequences, listed by entry. Tags and fused reporters are not part of them.
UniProt P43490: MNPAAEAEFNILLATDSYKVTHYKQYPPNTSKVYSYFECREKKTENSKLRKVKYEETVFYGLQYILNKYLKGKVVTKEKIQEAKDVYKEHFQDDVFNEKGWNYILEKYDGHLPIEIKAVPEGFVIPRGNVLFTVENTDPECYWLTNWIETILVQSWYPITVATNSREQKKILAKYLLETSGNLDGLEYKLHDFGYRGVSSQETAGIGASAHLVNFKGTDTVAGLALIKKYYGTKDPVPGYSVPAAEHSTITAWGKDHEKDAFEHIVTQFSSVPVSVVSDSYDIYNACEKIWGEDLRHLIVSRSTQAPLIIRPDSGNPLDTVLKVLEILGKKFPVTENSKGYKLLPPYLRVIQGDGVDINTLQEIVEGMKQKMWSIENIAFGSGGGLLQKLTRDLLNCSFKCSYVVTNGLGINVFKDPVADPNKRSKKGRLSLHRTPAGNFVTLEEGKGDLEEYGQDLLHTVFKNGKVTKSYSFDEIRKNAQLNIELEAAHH
UniProt Q99KQ4: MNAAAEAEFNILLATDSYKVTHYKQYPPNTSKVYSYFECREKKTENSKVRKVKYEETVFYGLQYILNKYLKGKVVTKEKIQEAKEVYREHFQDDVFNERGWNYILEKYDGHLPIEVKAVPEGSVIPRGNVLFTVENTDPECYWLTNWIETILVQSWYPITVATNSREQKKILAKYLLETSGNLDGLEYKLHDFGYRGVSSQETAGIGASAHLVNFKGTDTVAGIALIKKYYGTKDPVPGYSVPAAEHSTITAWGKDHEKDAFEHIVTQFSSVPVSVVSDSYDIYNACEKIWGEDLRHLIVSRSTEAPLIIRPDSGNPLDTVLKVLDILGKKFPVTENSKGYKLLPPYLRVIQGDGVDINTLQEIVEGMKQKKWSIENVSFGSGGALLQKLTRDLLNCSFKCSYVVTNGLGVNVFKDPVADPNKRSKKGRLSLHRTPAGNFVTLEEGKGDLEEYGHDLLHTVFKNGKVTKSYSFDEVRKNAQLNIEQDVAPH

Molecular target: T1, HA-tagged A1BG (UniProt P04217)
T1 sequence: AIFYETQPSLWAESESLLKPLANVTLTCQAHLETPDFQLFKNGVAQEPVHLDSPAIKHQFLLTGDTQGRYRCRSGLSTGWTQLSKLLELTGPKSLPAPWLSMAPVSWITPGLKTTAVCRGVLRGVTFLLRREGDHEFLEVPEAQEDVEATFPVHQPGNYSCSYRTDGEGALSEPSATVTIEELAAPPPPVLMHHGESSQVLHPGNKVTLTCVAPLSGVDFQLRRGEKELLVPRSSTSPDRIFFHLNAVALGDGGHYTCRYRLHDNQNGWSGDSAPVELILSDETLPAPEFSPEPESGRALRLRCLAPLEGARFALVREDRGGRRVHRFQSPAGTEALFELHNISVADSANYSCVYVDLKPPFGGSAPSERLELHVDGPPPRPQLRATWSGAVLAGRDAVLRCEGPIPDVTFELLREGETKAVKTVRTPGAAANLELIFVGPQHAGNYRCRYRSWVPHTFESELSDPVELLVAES
Assay: affinity purification with mass spectrometry; anti-HA immunoprecipitates from MNNG, U2OS and K7M2 cells overexpressing HA-tagged A1BG; IgG groups as control; SDS-PAGE, silver staining, mass spectrometry

| Substance | binding |
| --- | --- |
| nicotinamide phosphoribosyltransferase (NAMPT), human, endogenous (from UniProt P43490 1-491) (enzyme) | binds |
| nicotinamide phosphoribosyltransferase (NAMPT), mouse, endogenous (from UniProt Q99KQ4 1-491) (enzyme) | binds |
